Reference: patent publication US20200216863A1, “Use of renewable deep eutectic solvents in a one-pot process for a biomass” (National Technology & Engineering Solutions of Sandia, LLC, priority 2019, published 2020)

Experiment: Degradation compounds formed during DES pretreatment (HPLC, LC-MSD)
Settings: corn stover pretreatment

SMILES	concentration formed during DES pretreatment [mg/L]
O=Cc1ccco1 [furfural]	36.4
O=Cc1ccc(CO)o1 [HMF, hydroxymethylfurfural]	14.9
